For the test, the system named is 786-O cells. The experiment in a line: Dose-dependent anti-proliferative effects on 786-O cells (dose response). It counts as cell-based. The following applies: Homo sapiens, 786-0, single drug dose response, read-out: ED50 (the source's name).

The values below come from patent publication US12576075B2, “Combination therapies for treating cancer” (Institute For Cancer Research, priority 2018, dated 2026).

In the case of `CNC(=O)c1ccccc1Sc1ccc2c(/C=C/c3ccccn3)n[nH]c2c1` [Axitinib, axitinib], the EC50 turned out to be 1.9 µM.
